At least one structure is not confirmed: it was looked up by name or label, or the drawing left a doubt.
Columns and labels:
[1] = test system: Alpha hemolytic streptococci; test: Sensitivity panel on organism isolated from mare endometrium; assay type: cell-based; settings: isolate from endometrium of 16 year old Quarter Horse mare
Description: (§1) The microscopic findings from the lab were described as mild to moderate diffuse acute superficial […], Grade IIA endometrium. The lab also isolated Escherichia coli and Alpha-hemolytic streptococci. The sensitivity panel yielded the results in Table 1.

Escherichia coli = test: as above; assay type: cell-based; settings: isolate from endometrium of 16 year old Quarter Horse mare
Description: as §1

For `CN(C)[C@@H]1C(O)=C(C(N)=O)C(=O)[C@@]2(O)C(O)=C3C(=O)c4c(O)cccc4[C@@](C)(O)[C@H]3[C@H](O)[C@@H]12` [Oxytetracycline], which “Sensitivity Panel, Alpha hemolytic streptococci organism isolated” value [1] is on record?
The value was “Sensitive”.

And the “Sensitivity Panel, Escherichia coli Organism Isolated” value (Escherichia coli)?
Its value is “Resistant”.
